Assay results from the supplement of paper PMC10849652.
Some of the results follow.

Sequences of proteins named here, by UniProt entry; tags and fusion partners are left off. A change or cut given only in a name is not applied to a line headed by its entry.
UniProt Q7Z7B1: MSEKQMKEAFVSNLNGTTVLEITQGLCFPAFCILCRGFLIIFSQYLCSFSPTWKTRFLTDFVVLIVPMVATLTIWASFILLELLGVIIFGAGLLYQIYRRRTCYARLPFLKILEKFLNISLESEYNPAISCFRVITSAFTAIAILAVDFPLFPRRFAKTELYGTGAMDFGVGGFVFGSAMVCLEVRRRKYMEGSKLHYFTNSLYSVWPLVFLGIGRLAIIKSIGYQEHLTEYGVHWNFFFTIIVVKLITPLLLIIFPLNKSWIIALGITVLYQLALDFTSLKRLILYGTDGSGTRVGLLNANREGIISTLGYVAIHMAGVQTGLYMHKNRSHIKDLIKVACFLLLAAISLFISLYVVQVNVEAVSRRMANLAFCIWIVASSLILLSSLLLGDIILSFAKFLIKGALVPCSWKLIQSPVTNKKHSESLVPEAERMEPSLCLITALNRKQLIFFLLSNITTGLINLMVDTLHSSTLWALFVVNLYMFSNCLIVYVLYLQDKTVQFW
UniProt A6NDG6: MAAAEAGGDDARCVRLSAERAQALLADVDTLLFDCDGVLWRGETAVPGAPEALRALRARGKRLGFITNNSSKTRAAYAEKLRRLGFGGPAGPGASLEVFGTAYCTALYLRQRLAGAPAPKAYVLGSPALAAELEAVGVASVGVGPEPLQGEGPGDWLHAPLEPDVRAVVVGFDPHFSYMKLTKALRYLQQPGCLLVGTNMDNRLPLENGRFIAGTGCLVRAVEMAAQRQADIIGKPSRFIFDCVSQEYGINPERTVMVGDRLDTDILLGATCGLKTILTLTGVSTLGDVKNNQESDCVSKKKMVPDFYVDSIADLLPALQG
UniProt P08237: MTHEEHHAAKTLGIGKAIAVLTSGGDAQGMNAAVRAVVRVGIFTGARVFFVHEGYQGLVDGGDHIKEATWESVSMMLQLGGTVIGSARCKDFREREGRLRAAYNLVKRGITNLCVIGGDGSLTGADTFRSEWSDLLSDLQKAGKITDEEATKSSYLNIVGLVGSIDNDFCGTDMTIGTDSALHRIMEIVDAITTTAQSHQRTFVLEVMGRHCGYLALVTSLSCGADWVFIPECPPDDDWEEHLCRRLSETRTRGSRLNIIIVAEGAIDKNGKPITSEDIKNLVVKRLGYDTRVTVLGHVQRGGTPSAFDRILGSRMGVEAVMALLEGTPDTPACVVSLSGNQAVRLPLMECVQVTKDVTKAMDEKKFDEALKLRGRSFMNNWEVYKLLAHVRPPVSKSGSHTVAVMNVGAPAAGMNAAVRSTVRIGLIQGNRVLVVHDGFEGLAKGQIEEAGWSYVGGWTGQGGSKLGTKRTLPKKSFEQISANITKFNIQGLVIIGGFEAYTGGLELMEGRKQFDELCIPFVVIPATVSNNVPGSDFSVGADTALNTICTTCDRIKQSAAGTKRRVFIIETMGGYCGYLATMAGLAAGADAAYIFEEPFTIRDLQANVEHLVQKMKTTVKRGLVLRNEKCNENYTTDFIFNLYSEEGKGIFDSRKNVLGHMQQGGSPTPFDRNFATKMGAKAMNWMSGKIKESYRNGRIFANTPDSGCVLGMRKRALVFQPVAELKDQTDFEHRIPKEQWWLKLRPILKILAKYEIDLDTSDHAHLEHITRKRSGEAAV
UniProt Q9BZM1: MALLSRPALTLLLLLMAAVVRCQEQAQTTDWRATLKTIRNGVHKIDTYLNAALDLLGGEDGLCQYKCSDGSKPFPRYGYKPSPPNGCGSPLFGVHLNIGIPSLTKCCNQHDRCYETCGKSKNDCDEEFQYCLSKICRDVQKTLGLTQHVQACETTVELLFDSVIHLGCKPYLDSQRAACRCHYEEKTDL
UniProt Q16875: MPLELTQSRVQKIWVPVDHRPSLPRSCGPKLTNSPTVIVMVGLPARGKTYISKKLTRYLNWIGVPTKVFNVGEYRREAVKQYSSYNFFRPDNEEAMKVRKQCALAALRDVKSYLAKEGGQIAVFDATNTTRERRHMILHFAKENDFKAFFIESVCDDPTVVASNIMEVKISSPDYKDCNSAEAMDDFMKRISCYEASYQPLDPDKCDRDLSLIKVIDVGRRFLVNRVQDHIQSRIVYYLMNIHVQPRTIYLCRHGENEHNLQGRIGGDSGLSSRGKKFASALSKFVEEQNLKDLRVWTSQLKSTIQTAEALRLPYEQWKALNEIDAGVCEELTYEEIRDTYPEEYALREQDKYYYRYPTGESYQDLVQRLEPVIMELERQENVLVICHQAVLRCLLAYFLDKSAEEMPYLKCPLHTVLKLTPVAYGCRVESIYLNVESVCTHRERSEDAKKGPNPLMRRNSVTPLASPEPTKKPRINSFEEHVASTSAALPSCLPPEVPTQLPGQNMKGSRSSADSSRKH
UniProt Q99623, whole entry, looked up: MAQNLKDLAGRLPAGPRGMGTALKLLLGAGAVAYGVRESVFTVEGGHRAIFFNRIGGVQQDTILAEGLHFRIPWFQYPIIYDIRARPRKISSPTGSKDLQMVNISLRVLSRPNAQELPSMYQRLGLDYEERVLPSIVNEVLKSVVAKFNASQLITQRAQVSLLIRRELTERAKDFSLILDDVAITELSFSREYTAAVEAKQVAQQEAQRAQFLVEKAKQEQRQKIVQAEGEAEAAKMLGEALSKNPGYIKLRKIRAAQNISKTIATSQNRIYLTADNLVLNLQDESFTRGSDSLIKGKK
UniProt Q96G03: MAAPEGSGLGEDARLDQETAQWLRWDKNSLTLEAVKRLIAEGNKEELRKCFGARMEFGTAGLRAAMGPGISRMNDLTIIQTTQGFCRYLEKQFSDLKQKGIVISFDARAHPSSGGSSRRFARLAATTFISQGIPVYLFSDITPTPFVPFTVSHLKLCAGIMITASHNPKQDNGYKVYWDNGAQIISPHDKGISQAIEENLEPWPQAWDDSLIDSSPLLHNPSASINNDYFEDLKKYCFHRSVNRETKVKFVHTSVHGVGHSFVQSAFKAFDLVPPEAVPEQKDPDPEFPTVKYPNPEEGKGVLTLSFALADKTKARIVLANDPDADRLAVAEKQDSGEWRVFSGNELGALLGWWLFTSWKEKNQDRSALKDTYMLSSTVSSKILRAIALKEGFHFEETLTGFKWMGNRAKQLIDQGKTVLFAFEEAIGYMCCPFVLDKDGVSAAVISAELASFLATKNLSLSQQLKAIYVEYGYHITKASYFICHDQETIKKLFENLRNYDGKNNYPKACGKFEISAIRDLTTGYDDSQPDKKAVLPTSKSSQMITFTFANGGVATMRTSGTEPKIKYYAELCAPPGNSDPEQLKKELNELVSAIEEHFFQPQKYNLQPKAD
PIGBOS1, A0A0B4J2F0, UniProt A0A0B4J2F0, whole entry, looked up: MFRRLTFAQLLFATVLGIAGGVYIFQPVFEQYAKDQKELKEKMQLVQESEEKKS
UniProt O75167: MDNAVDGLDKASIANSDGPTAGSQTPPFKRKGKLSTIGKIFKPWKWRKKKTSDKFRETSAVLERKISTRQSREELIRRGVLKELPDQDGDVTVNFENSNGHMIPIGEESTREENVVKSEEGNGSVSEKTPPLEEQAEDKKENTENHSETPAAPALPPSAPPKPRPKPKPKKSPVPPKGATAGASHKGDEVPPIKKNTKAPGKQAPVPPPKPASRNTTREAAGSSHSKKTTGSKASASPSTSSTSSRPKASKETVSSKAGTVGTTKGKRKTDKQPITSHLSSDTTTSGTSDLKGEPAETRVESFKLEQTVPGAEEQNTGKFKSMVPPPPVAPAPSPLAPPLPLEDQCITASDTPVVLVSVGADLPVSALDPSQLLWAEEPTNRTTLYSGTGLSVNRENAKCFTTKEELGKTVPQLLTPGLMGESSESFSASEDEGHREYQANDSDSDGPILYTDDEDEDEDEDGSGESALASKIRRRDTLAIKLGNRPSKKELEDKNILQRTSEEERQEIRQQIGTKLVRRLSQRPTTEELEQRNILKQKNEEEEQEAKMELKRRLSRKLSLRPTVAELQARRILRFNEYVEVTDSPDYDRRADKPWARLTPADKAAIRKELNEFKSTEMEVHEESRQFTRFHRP
UniProt P30613: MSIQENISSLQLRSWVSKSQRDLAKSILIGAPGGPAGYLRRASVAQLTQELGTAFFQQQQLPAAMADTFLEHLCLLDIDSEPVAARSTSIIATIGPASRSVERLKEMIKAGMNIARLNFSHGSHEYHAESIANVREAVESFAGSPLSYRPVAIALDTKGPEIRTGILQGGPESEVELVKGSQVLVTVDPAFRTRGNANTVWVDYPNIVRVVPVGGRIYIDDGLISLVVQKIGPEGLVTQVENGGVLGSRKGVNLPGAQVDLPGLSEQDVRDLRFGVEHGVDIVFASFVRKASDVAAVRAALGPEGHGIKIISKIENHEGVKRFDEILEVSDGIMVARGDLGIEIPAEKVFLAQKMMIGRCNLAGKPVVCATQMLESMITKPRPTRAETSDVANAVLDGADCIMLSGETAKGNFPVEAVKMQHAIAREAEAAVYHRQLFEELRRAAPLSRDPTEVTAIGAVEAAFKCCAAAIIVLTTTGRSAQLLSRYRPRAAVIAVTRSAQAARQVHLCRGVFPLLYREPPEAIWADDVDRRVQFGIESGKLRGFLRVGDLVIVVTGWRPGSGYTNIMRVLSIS
UniProt Q6PCE3: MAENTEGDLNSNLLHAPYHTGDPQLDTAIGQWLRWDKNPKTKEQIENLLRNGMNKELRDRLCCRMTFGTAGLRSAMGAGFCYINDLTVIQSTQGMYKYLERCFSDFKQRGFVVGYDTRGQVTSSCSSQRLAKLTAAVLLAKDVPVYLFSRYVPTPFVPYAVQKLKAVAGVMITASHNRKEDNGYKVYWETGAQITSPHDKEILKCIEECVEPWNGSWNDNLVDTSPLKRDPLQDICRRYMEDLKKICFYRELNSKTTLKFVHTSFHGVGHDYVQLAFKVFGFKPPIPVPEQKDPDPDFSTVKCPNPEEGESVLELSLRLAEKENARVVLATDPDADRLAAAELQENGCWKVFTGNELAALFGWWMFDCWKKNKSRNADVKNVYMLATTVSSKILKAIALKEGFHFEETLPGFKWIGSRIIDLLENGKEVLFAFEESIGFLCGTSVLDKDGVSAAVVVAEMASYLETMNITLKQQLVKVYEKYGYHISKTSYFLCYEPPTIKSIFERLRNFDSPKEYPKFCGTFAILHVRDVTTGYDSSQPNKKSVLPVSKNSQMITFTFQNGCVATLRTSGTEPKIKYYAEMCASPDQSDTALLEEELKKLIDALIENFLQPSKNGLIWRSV
UniProt P18669: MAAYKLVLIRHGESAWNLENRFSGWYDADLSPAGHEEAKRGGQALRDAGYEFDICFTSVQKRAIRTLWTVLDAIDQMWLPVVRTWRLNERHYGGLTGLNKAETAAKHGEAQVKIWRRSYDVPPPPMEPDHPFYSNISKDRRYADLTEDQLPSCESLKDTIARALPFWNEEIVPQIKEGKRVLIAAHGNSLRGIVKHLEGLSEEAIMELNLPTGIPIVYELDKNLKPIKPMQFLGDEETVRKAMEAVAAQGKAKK
UniProt Q16877: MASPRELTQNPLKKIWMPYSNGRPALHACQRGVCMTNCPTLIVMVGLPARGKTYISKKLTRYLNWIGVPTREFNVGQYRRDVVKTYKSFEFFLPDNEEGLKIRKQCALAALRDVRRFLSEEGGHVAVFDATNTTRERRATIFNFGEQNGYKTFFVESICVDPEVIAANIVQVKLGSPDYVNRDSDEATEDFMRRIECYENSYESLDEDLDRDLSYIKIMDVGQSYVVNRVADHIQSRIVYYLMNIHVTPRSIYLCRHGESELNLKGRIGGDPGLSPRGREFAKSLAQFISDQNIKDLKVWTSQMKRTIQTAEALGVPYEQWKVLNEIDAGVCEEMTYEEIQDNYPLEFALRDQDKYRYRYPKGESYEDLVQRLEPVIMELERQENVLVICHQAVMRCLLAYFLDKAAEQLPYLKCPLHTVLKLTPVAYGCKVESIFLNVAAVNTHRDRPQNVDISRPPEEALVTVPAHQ
UniProt O00459, whole entry, looked up: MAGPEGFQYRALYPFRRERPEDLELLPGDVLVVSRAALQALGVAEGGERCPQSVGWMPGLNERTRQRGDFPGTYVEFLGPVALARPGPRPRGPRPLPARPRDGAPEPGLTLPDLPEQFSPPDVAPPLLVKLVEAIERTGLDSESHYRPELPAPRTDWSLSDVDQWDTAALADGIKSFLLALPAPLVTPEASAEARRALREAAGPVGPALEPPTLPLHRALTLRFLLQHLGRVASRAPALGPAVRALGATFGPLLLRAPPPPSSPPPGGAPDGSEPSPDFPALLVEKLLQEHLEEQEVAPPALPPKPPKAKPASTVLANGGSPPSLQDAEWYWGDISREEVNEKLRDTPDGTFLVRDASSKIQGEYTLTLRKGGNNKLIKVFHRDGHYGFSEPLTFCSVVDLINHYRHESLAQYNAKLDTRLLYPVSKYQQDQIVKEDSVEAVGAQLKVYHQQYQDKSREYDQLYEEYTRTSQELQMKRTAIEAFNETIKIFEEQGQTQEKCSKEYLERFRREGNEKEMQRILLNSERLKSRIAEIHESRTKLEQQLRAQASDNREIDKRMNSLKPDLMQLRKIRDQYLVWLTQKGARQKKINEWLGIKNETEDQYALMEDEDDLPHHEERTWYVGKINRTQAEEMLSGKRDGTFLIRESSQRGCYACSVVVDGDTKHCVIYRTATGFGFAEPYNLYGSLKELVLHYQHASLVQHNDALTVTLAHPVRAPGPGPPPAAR

compound: CNCc1ccc(-c2[nH]c3cc(F)cc4c3c2CCNC4=O)cc1 [rucaparib]; test: log2 fold change, soluble protein after heating vs DMSO (PISA); higher = thermal stabilisation; K562 cells, 10 uM, 30 min; active = over 0.2 and 3.5 SD of the protein, either way, in both replicates (recomputed)
Procedure, shortened: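 Soluble protein was quantified by TMTpro 16plex LC-MS/MS after channel sums were equalised. It was obtained as the supernatant after 21,000xg for 90 min from pooled aliquots of K562 cells (2×10^6 cells/mL, 10 μM compound, 30 min) heated for 3 min across 48°C-58°C and extracted in PBS with 0.5% NP-40 at 4°C. Thermal stability values are relative to control samples and come from duplicates. They are given as log2 fold changes.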

Target | log2 fold change
PIGW (UniProt Q7Z7B1) | inactive: 0.05
PGP (UniProt A6NDG6) | inactive: -0.062
PFKM isoform 3 (UniProt P08237) | inactive: -0.046
PLA2G12A (UniProt Q9BZM1) | inactive: -0.027
PFKFB3 isoform 4 (UniProt Q16875) | inactive: -0.075
PHB2 (UniProt Q99623) | inactive: -0.037
PGM2 (UniProt Q96G03) | inactive: -0.068
PIGBOS1, A0A0B4J2F0 | inactive: -0.005
PHACTR2 isoform 4 (UniProt O75167) | inactive: -0.015
PKLR (UniProt P30613) | inactive: -0.051
PHKB isoform 3 (UniProt Q93100) | inactive: 0.039
PFDN4 (UniProt Q9NQP4) | inactive: -0.048
PGM2L1 (UniProt Q6PCE3) | inactive: -0.022
PHF19 isoform 2 (UniProt Q5T6S3) | inactive: 0.215
PGAM1 (UniProt P18669) | inactive: 0.026
PLCH1 (UniProt Q4KWH8) | inactive: -0.05
PFKP (UniProt Q01813) | inactive: -0.017
PHPT1 (UniProt Q9NRX4) | inactive: -0.045
PHB (UniProt P35232) | inactive: -0.036
PFKFB4 (UniProt Q16877) | inactive: 0.032
PIK3R2 (UniProt O00459) | inactive: -0.061
PFKL isoform 2 (UniProt P17858) | inactive: -0.015

Given with tabs: part of the list above
Target	log2 fold change
PHACTR2 isoform 4 (UniProt O75167)	inactive: -0.015
PHF19 isoform 2 (UniProt Q5T6S3)	inactive: 0.215
